From doi:10.1101/2020.02.12.945162
No constants are given. Whether binding was seen depends on the method and setting. In cells and extracts the contact can be indirect. Some entries that bind do so weakly or less than the wild type.

Sequences of proteins named here, by UniProt entry; tags and fusion partners are left off. A change or cut given only in a name is not applied to a line headed by its entry. A line that says so, or that is headed by a name, gives the form on record, which may keep a tag or linker. Residues count along the entry.
UniProt Q9NR31, residues 18-198: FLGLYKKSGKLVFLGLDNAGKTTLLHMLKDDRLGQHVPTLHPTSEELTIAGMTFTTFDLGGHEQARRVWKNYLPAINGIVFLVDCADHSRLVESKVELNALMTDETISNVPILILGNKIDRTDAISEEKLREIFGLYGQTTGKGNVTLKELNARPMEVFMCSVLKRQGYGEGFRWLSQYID
Sec23A (COPII subunit) of rat liver cytosol (B5DFC3, form named): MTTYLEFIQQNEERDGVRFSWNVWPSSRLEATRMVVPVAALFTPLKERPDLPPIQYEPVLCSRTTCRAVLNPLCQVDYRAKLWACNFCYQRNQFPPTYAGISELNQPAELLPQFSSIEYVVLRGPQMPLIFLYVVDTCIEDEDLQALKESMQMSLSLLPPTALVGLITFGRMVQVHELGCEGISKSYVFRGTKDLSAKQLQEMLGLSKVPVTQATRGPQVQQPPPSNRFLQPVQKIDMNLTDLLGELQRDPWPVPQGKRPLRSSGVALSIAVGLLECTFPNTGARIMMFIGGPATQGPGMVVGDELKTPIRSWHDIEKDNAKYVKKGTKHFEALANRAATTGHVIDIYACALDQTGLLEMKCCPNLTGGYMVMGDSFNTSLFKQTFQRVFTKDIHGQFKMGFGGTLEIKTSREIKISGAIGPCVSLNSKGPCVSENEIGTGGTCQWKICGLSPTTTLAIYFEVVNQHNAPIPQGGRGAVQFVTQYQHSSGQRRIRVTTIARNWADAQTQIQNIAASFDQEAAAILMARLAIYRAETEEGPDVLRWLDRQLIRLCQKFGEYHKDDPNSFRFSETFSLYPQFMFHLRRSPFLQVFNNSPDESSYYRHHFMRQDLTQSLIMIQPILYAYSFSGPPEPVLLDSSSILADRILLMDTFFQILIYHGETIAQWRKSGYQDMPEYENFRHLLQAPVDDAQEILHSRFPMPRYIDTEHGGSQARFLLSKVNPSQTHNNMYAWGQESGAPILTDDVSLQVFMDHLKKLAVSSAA

Molecular target: GST-tagged human Sar1A depleted of its N-terminal amphipathic helix (GST-Sar1A^Δ1-17) (human) (UniProt Q9NR31)
Experiment: pull-down

Substance: Sec23A (COPII subunit) of rat liver cytosol (from UniProt B5DFC3 1-765)
- binding: binds
